{"source": "patent EP4755878A1", "about": "“PHOTOCHROMIC COMPOUND, PHENOL DERIVATIVE, CURABLE COMPOSITION, OPTICAL ARTICLE, LENS, AND EYEGLASS” (TOKUYAMA CORPORATION, priority 2023, dated 2025)", "conditions_in_all_cases": "A35/A23 × 100, one value per compound", "key": {"[1]": {"assay": "Photochromic properties of photochromic cured product made by kneading method", "assay_type": "physicochemical", "text": "First, the photochromic compound obtained in Example 1, additives, and polymerizable compounds were mixed to obtain a curable composition. As the polymerizable compounds, a blend of the following polymerizable monomers in combination was used. • 1,3-Bis(isocyanatomethyl)cyclohexane: 36.7 parts by mass Pentaerythritol tetrakis(3-mercaptopropionate): 39.4 parts by mass • Polyoxyethylene polyoxypropylene lauryl ether (WONDERSURF 140 from Aoki Oil Industrial Co., Ltd.): 17.4 parts by mass 1-Decanethiol: 2.8 parts by mass • RX-1 prepared according to the method described in Patent Document 12: 3.8 parts by mass Note that in the curable composition, the photochromic compound was added to be 0.106 mmol taking the total amount of the polymerizable monomers as 100 g.\nThe following additives were used. Dimethyltin dichloride: 0.05 parts by mass • Irganox 245 from BASF Japan Ltd.: 0.1 parts by mass • 2-Ethylhexyl 4-methoxycinnamate: 0.6 parts by mass\nThe prepared curable composition was sufficiently degassed, and then injected into a glass mold provided with a gap of 1 mm, and the curable composition was polymerized via casting polymerization. […] After the polymerization, the cured product was removed from the glass mold, to obtain photochromic cured product having a thickness of 1 mm. The resulting photochromic cured product was evaluated in the same manner as in Example 23.\n(Examples 51 to 60, and Comparative Examples 11 to 14) Photochromic cured products were formed using the photochromic compound shown in Table 6 in the same manner as in Example 50."}, "[2]": {"assay": "Photochromic properties of photochromic layer (binder sheet) made by binder method"}, "[3]": {"assay": "Photochromic properties of photochromic laminate (plastic lens) made by coating method", "assay_type": "physicochemical", "text": "First, the photochromic compound obtained in Example 1 above, a photoinitiator, and polymerizable compounds were mixed to obtain a curable composition.\nAs the polymerizable compounds, a blend of the following radically-polymerizable monomers in combination was used.\n• Polyethylene glycol dimethacrylate (average molecular weight: 736): 42 parts by mass • Polyethylene glycol dimethacrylate (average molecular weight: 536): 12 parts by mass • Trimethylolpropane trimethacrylate: 38 parts by mass • γ-Methacryloyloxypropyltrimethoxysilane: 2 parts by mass • Glycidyl methacrylate: 1 part by mass.\nNote that in the curable composition, the photochromic compound obtained in Example 1 above was added to be 0.25 mmol taking the total amount of the radically-polymerizable monomers as 100 g. The following were used as additives.\n(stabilizer, Irganox 245): 1 part by mass Bis(1,2,2,6,6-pentamethyl-4-piperidyl) sebacate: 3 parts by mass Leveling agent from DuPont Toray Specialty Materials K.K. (L7001): 0.1 parts by mass.\nNote that the above-mentioned additives are described with blending ratios taking a total of the radically-polymerizable monomers as 100 parts by mass.\nUsing this curable composition, a photochromic laminate was obtained by a lamination process described below with the polymerization described below being carried out.\nFirst, a thiourethane plastic lens with a center thickness of 2 mm and a refractive index of 1.60 was prepared as an optical substrate. Note that the thiourethane plastic lens had been alkaline-etched beforehand in a 10% aqueous sodium hydroxide solution at 50°C for 5 minutes, and then thoroughly washed with distilled water.\nA spin coater (1H-DX2, manufactured by MIKASA CO., LTD) was used to coat a surface of the above-mentioned plastic lens with a moisture-curable primer (product name: TR-SC-P, manufactured by Tokuyama Corporation) at a rotation speed of 70 rpm for 15 seconds, followed by at 1000 rpm for 10 seconds. Then, about 2 g of the photochromic curable composition obtained as above was spin-coated at a rotation speed of 60 rpm for 40 seconds, followed by at 600 rpm for 10 to 20 seconds so as to achieve a photochromic coating layer with a film thickness of 40 µm.\nThe lens having the surface coated with the photochromic curable composition (photochromic coating layer) was irradiated with light for 90 seconds in a nitrogen gas atmosphere using a metal halide lamp with an output of 200 mW/cm^2 to cure the coating film. The coating was then further heated at 110°C for 1 hour to produce a photochromic laminate with a photochromic layer.\nPhotochromic laminates were produced using the photochromic compounds obtained in Examples 2 to 19 in the same manner as in Example 20.\nPhotochromic laminates were obtained in the same manner as in Example 20 using photochromic compounds represented by the following formulas (A) to (F). [drawing 143] [drawing 144] [drawing 145] [drawing 146] [drawing 147] [drawing 148] [drawing 149] [drawing 150]\nThe resulting photochromic laminates were evaluated by the methods described below.\nTable 3 summarizes the results of Examples 20, 32, and 34, and Comparative Examples 1 to 6, and Table 4 summarizes the results of Examples 21 to 31, 33, and 35 to 38. The relationship between the fading half-life at 23°C and the color development ratio at the higher temperature of the photochromic laminates according to Examples and Comparative Examples are shown in a graph in FIG. 1.\nPhotochromic laminates were formed using the photochromic compound obtained in Examples 61 to 71 in the same manner as in Example 20."}}}
{"smiles": "COc1ccc(C2(c3ccc(N4CCOCC4)cc3)C=Cc3c4c(c5ccc(OC)cc5c3O2)-c2ccc(N(C)c3ccccc3)cc2C42CCCCCCC2)cc1", "note": "(stereo not drawn) [Formula (4-3)]", "values": [{"measurement": "Color development ratio at high temperature", "setting": "[1]", "value": 72, "unit": "%"}, {"measurement": "Color development ratio at high temperature", "setting": "[2]", "value": 69, "unit": "%"}, {"measurement": "Color development ratio at high temperature", "setting": "[3]", "value": 71, "unit": "%"}]}
{"smiles": "COc1ccc(C2(c3ccc(OC)cc3)C=Cc3c4c(c5ccc(OC)cc5c3O2)-c2ccccc2C4(C)C)cc1", "note": "[Formula (A), reference compound]", "values": [{"measurement": "Color development ratio at high temperature", "setting": "[1]", "value": 67, "unit": "%"}, {"measurement": "Color development ratio at high temperature", "setting": "[2]", "value": 64, "unit": "%"}, {"measurement": "Color development ratio at high temperature", "setting": "[3]", "value": 63, "unit": "%"}]}
{"smiles": "COc1ccc(C2(c3ccc(OC)cc3)C=Cc3c4c(c5ccc(OC)cc5c3O2)-c2ccc(N(c3ccccc3)c3ccccc3)cc2C4(C)C)cc1", "note": "[Formula (15-2)]", "values": [{"measurement": "Color development ratio at high temperature", "setting": "[1]", "value": 75, "unit": "%"}, {"measurement": "Color development ratio at high temperature", "setting": "[2]", "value": 72, "unit": "%"}, {"measurement": "Color development ratio at high temperature", "setting": "[3]", "value": 73, "unit": "%"}]}
{"smiles": "COc1ccc(C2(c3ccc(OC)cc3)C=Cc3c4c(c5ccc(Oc6ccccc6)cc5c3O2)-c2ccc(N(c3ccccc3)c3ccccc3)cc2C4(CCCCF)CCCCF)cc1", "note": "[Formula (8-2)]", "values": [{"measurement": "Color development ratio at high temperature", "setting": "[1]", "value": 69, "unit": "%"}, {"measurement": "Color development ratio at high temperature", "setting": "[2]", "value": 68, "unit": "%"}, {"measurement": "Color development ratio at high temperature", "setting": "[3]", "value": 69, "unit": "%"}]}
{"smiles": "COc1ccc(C2(c3ccc(OC)cc3)C=Cc3c4c(c5ccc(OC)cc5c3O2)-c2ccc(N3CCOc5ccccc53)cc2C4(C)C)cc1", "note": "[Formula (13-2)]", "values": [{"measurement": "Color development ratio at high temperature", "setting": "[1]", "value": 75, "unit": "%"}, {"measurement": "Color development ratio at high temperature", "setting": "[2]", "value": 71, "unit": "%"}, {"measurement": "Color development ratio at high temperature", "setting": "[3]", "value": 73, "unit": "%"}]}
{"smiles": "CCCCC1(CCCC)c2cc(N(CC)c3ccccc3)ccc2-c2c1c1c(c3cc(C)c(-c4ccc(OC)cc4)cc23)OC(c2ccc(C)cc2)(c2ccc(N(C)c3ccccc3)cc2)C=C1", "note": "(stereo not drawn) [Formula (12-5)]", "values": [{"measurement": "Color development ratio at high temperature", "setting": "[1]", "value": 76, "unit": "%"}, {"measurement": "Color development ratio at high temperature", "setting": "[2]", "value": 72, "unit": "%"}, {"measurement": "Color development ratio at high temperature", "setting": "[3]", "value": 74, "unit": "%"}]}
{"smiles": "CCCCOc1ccc(C2(c3ccc(OC)cc3)C=Cc3c4c(c5ccc(C)cc5c3O2)-c2ccc(N3CCOc5ccccc53)cc2C4(CCCC(F)(F)F)CCCC(F)(F)F)cc1", "note": "(stereo not drawn) [Formula (3-3)]", "values": [{"measurement": "Color development ratio at high temperature", "setting": "[1]", "value": 78, "unit": "%"}, {"measurement": "Color development ratio at high temperature", "setting": "[2]", "value": 75, "unit": "%"}, {"measurement": "Color development ratio at high temperature", "setting": "[3]", "value": 77, "unit": "%"}]}
{"smiles": "COc1ccc(C2(c3ccc(OC)cc3)C=Cc3c4c(c5ccc(OC)cc5c3O2)-c2ccc(N3CCCCC3)cc2C4(C)C)cc1", "note": "[Formula (D), reference compound]", "values": [{"measurement": "Color development ratio at high temperature", "setting": "[1]", "value": 80, "unit": "%"}, {"measurement": "Color development ratio at high temperature", "setting": "[2]", "value": 75, "unit": "%"}, {"measurement": "Color development ratio at high temperature", "setting": "[3]", "value": 75, "unit": "%"}]}
